Among the data in patent US9539222B2, “Methods to inhibit intracellular growth of bacteria and to treat bacteria-mediated diseases” (priority 2012, dated 2017) are IC50 values, retold here.

This experiment concerns BCG. Description: microbe, parasite or virus in culture. Conditions: Mycobacterium tuberculosis variant bovis BCG, read-out: IC50 in MIC assay. It counts as cell-based.

Turning to `CCCCc1oc2ccccc2c1C(=O)c1cc(I)c(OCCN(CC)CC)c(I)c1` [amiodarone, (2-{4-[(2-butyl-1-benzofuran-3-yl)carbonyl]-2,6-diiodophenoxy}ethyl)diethylamine], the IC50 was roughly 9.6 µM.
